For 1 molecule, binding results are on record in publication doi:10.1101/2021.09.10.459716.

No constants are given. Whether binding was seen depends on the method and setting. Binding seen in cells or lysates may run through a third protein. Here binding means that the protein was enriched with, or labelled near, the bait; the list need not be complete.

The experiment has as its target T1, S. islandicus Dpo1 (SiRe_1451) (Sulfolobus islandicus) (UniProt F0NBI0).
T1 sequence: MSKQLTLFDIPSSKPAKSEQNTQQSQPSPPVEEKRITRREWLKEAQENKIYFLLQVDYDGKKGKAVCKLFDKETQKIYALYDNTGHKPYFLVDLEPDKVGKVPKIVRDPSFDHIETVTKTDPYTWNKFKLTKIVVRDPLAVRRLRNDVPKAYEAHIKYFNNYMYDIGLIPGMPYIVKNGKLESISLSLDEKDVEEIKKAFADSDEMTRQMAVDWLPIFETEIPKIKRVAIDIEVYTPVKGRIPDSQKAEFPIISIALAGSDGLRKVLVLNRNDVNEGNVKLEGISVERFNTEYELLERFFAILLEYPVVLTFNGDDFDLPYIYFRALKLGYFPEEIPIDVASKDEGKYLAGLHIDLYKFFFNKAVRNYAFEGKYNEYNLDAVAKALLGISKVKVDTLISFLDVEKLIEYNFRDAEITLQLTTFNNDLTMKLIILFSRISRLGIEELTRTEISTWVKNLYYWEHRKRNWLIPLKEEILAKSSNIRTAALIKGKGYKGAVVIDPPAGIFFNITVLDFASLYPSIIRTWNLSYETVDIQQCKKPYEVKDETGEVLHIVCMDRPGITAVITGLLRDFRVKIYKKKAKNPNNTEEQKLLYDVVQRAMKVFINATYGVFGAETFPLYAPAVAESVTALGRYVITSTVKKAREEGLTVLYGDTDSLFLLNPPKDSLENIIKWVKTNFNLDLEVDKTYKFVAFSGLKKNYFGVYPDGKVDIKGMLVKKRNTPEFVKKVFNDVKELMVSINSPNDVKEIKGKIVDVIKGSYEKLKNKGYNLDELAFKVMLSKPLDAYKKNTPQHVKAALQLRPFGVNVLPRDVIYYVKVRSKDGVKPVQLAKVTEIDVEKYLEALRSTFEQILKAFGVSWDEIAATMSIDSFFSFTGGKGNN
Put plainly: affinity purification with mass spectrometry.

B1: PBP1 (SiRe_1861) (protein, UniProt F0NI39 1-97)
chain: MSTRWSPKWKAIEIDHNNKKVTICYDETTKLYVCPICSPNCAKGVSTDYSTYFFDLEDLKRHLDAHKHGLWLQKKIRTEEEEEEPKLSVGEEEIEEE
Regarding B1, the binding entry was “binds”.
